For 42 compounds, AC50 results are on record in PubChem BioAssay AID901 (National Center for Advancing Translational Sciences (NCATS), 2007).

This is one part of the list. Shown are side measurements of this screen, not its main read-out; they come without a call. Compounds called inactive in the main read-out are mostly missing here. Potencies come from curve fits of mixed quality, noted in brackets.

A short description of the test: qHTS Assay for Identifying the Cell-Membrane Permeable IMPase Inhibitors. The note with it: CHO-M1 cells, IP1 accumulation, HTRF TR-FRET ratio; measured here: donor channel 620 nm AC50. For orientation: Quantitative high-throughput screening tests each substance at several concentrations.
As a reminder, the AC50 is the concentration giving half of the maximal activity seen. In the case of `O=C(Nc1ccccc1)OCc1cn(-c2ccc(Cl)cc2)nn1`, the AC50 is 20 µM [rising, partial curve, poor fit].
The figure for `COc1ccc(NC(=O)CCCCn2c(=O)[nH]c3ccccc3c2=O)cc1` is 25.1 µM [falling, single point]; for `Cn1c(=O)c2c(ncn2CC(=O)Nc2cccc(Cl)c2Cl)n(C)c1=O` it is 5.62 µM [falling, single point]; for `CSc1nsc(SCCN2C(=O)c3ccccc3C2=O)n1` it is 14.1 µM [falling, single point].
In the case of `O=C(NCc1ccc(F)cc1)c1ccc(CS(=O)(=O)Cc2ccc(F)cc2)o1`, the AC50 was 0.00316 µM [falling, full curve, poor fit].
The same measure for `CC(=O)c1nc(N2C(=O)CC(Cc3ccc(C)cc3)C2=O)sc1C` (configuration not stated): 31.6 µM [rising, single point].
The same measure for `Cc1ccc(-n2c(C)cc(C)c(C#N)c2=O)cc1`: 10 µM [falling, partial curve].
In the case of `CCOc1cccc(C2C(C(=O)c3ccc(C)o3)=C(O)C(=O)N2Cc2ccncc2)c1` (configuration not stated), the AC50 was 12.6 µM [rising, single point].
The same measure for `Cc1ccc(C2C(C(=O)c3ccco3)=C(O)C(=O)N2c2nnc(C)s2)cc1` (configuration not stated): 31.6 µM [rising, single point]; for `COc1cc2cc(C(=O)Nc3ccccc3)c(N)nc2cc1OC`: 0.00794 µM [rising, full curve, poor fit].
The same measure for `Cc1csc(NC(=O)CSc2nnc(-c3ccncc3)n2C)n1`: 0.0158 µM [rising, full curve, poor fit]; for `COc1cccc(-c2nnc(NC(=O)Cc3cccs3)s2)c1`: 31.6 µM [rising, single point].
The figure for `Cc1sc2ncnc(Nc3ccc(N4CCOCC4)cc3)c2c1-c1ccccc1` is 35.5 µM [rising, single point]; for `COc1ccc(C(=O)C(OC(=O)c2ccc(C)c(NC(C)=O)c2)c2ccccc2)cc1` (configuration not stated) it is 0.0251 µM [falling, full curve, poor fit].
For `CCOC(=O)N1CCN(S(=O)(=O)c2cc(OCC)ccc2OCC)CC1`, the concentration at half-maximal activity (AC50) is 0.00794 µM [rising, full curve, poor fit].
On to `Cn1c(SCc2nc(-c3ccccc3)no2)nnc1-c1cccs1`, for which the concentration at half-maximal activity (AC50) was 0.794 µM [falling, full curve].
For the compound `NC(=O)C1(N2CCCCC2)CCN(C(=O)NC2CCCCC2)CC1`, the AC50 was 3.98 µM [falling, partial curve, poor fit].
The figure for `O=C(Cn1c(=O)n(CC2CCC(C(=O)NCCc3ccccc3)CC2)c(=O)c2ccccc21)Nc1ccccc1` (configuration not stated) is 0.447 µM [falling, partial curve]; for `Cc1onc(-c2c(F)cccc2Cl)c1C(=O)Nc1cccc(Cn2cccn2)c1` it is 5.62 µM [rising, single point].
The same measure for `CC(=C1C(=O)c2ccccc2C1=O)N1CCN(c2ccccn2)CC1`: 25.1 µM [rising, single point]; for `O=C(COC(=O)c1cn(-c2ccccc2)nc1-c1ccc(F)cc1)Nc1ncc(Cl)cc1Cl`: 20 µM [rising, single point]; for `Cc1cc(NC(=O)CN2CCC(C)CC2)nc2c1c(=O)oc1ccccc12`: 4.47 µM [falling, single point].
Take `Cc1ccc(/C=C/C(=O)Nc2ccccc2C(N)=O)o1`: the AC50 was 0.708 µM [falling, single point].
The figure for `Cc1cccc(NC(=O)CCS(=O)(=O)c2cc(Br)cc3c2N(C(=O)C2CC2)CC3)c1` is 31.6 µM [rising, single point].
The figure for `COCCN1C(=O)c2ccccc2C(C(=O)NCCN(C)C)C1c1ccc(F)cc1` (configuration not stated) is 0.02 µM [rising, full curve, poor fit]; for `C/C(N)=C(/C#N)C(=O)COC(=O)c1cc(-c2ccc(C)cc2)nc2ccccc12` it is 4.47 µM [rising, single point]; for `COc1nc2ccc(C)cc2cc1-c1noc(-c2ccccc2)n1` it is 31.6 µM [rising, single point].
With `COc1ccc(-n2c(-c3ccccc3)nnc2-c2ccc(Cl)cc2)cc1`, the AC50 is 0.0126 µM [rising, full curve, poor fit].
For `O=C(Nc1cccc(Cl)c1N1CCCC1)c1ccc(Br)o1`, the AC50 is 2.51 µM [falling, full curve].
As to `CC(=O)N1CC2(CC(=O)OC(C)C)CN(C(C)=O)CC(CC(=O)OC(C)C)(C1)C2=O`, the AC50 is 28.2 µM [falling, single point].
Regarding `Cn1c(=O)c2c(nc(NCc3ccco3)n2Cc2ccccc2Cl)n(C)c1=O`, the AC50 is 0.0355 µM [falling, partial curve, poor fit].
The figure for `CCOC(=O)c1cnn(-c2nc3c(C)cccc3s2)c1C(F)(F)F` is 31.6 µM [falling, single point]; for `CC(=O)OC1COC(n2ccc3cc([N+](=O)[O-])ccc32)C(OC(C)=O)C1OC(C)=O` (configuration not stated) it is 31.6 µM [falling, single point]; for `CCOC(=O)CSc1nc(C(C)C)nc2ccccc12` it is 15.8 µM [rising, partial curve, poor fit].
The figure for `COc1ccccc1NC(=O)c1nn(-c2ccc(Cl)cc2)ccc1=O` is 0.158 µM [falling, full curve, poor fit]; for `Nc1nc2ccc(C(=O)NC3CCCCC3)cc2s1` it is 31.6 µM [falling, partial curve, poor fit].
The same measure for `COc1ccc2cc(/C=C/C(=O)c3ccco3)c(Cl)nc2c1`: 20 µM [falling, single point]; for `CNC(=O)c1ccccc1NC(=O)c1ccc(C)c(S(=O)(=O)N2CCCCC2)c1`: 5.01 µM [rising, single point].
For the compound `CC(C)CCOc1ccc(Cl)cc1CN1CCOCC1`, the AC50 is 0.631 µM [falling, full curve, poor fit].
The figure for `O=C1CN(C(=O)COC(=O)Cc2ccsc2)c2ccccc2N1` is 0.0398 µM [falling, full curve]; for `O=C1c2ccccc2C(=O)N1CCN1CCc2ccccc21` it is 0.0251 µM [rising, full curve, poor fit].
The same measure for `CC(=O)N1CCN(CC(=O)Nc2c(Cl)cc(Cl)cc2Cl)CC1`: 12.6 µM [falling, partial curve].
